From paper PMC7363444

Sequences of proteins named here, by UniProt entry; tags and fusion partners are left off.
UniProt Q15154: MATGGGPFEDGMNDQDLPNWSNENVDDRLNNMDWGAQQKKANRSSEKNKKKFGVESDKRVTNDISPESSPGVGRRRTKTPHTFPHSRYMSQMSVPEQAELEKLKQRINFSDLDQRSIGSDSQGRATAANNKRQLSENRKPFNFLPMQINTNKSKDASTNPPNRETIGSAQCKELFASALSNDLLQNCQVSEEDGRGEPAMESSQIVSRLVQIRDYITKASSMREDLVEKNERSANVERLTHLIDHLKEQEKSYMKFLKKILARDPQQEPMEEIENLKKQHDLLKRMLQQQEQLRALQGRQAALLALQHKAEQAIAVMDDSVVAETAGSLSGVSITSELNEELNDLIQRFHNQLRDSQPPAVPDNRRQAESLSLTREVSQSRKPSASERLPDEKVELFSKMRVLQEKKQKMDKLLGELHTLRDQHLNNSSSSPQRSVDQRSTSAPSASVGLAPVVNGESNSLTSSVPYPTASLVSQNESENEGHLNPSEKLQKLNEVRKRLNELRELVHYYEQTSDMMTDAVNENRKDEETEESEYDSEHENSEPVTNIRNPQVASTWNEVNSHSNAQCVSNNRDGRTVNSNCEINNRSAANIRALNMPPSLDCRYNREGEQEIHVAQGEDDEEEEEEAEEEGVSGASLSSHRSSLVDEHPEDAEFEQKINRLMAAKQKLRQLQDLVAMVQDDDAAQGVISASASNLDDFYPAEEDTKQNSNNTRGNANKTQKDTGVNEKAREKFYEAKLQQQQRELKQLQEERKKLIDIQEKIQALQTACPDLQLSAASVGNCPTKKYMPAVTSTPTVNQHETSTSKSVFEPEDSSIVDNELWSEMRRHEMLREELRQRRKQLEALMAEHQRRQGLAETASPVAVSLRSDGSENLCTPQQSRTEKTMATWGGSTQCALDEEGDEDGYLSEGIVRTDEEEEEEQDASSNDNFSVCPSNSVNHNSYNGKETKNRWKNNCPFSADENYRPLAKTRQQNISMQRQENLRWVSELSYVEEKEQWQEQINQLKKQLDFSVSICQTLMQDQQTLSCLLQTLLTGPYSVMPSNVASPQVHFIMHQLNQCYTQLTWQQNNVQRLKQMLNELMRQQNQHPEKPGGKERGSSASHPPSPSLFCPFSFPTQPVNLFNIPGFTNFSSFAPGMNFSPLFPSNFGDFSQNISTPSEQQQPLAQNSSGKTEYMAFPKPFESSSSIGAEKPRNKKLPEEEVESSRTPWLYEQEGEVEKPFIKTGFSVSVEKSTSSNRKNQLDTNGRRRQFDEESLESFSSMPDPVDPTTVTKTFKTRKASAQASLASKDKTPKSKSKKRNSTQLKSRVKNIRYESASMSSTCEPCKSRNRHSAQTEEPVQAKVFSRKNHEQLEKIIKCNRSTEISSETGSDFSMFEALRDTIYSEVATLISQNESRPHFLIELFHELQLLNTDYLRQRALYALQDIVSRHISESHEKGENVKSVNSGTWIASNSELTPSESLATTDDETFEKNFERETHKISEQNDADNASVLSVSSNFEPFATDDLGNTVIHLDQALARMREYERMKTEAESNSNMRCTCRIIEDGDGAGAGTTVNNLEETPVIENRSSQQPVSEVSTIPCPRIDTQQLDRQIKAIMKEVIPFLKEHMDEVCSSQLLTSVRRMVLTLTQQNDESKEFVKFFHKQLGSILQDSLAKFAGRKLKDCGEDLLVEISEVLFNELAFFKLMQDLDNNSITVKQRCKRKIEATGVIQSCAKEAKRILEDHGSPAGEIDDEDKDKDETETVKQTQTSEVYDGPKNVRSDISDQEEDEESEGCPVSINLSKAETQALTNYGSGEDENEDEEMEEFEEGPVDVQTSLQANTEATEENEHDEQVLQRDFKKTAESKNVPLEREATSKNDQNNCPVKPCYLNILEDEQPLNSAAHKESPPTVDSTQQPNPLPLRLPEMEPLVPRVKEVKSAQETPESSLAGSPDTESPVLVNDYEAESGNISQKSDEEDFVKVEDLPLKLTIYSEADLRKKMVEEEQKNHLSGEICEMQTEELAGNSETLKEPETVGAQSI
UniProt P21333: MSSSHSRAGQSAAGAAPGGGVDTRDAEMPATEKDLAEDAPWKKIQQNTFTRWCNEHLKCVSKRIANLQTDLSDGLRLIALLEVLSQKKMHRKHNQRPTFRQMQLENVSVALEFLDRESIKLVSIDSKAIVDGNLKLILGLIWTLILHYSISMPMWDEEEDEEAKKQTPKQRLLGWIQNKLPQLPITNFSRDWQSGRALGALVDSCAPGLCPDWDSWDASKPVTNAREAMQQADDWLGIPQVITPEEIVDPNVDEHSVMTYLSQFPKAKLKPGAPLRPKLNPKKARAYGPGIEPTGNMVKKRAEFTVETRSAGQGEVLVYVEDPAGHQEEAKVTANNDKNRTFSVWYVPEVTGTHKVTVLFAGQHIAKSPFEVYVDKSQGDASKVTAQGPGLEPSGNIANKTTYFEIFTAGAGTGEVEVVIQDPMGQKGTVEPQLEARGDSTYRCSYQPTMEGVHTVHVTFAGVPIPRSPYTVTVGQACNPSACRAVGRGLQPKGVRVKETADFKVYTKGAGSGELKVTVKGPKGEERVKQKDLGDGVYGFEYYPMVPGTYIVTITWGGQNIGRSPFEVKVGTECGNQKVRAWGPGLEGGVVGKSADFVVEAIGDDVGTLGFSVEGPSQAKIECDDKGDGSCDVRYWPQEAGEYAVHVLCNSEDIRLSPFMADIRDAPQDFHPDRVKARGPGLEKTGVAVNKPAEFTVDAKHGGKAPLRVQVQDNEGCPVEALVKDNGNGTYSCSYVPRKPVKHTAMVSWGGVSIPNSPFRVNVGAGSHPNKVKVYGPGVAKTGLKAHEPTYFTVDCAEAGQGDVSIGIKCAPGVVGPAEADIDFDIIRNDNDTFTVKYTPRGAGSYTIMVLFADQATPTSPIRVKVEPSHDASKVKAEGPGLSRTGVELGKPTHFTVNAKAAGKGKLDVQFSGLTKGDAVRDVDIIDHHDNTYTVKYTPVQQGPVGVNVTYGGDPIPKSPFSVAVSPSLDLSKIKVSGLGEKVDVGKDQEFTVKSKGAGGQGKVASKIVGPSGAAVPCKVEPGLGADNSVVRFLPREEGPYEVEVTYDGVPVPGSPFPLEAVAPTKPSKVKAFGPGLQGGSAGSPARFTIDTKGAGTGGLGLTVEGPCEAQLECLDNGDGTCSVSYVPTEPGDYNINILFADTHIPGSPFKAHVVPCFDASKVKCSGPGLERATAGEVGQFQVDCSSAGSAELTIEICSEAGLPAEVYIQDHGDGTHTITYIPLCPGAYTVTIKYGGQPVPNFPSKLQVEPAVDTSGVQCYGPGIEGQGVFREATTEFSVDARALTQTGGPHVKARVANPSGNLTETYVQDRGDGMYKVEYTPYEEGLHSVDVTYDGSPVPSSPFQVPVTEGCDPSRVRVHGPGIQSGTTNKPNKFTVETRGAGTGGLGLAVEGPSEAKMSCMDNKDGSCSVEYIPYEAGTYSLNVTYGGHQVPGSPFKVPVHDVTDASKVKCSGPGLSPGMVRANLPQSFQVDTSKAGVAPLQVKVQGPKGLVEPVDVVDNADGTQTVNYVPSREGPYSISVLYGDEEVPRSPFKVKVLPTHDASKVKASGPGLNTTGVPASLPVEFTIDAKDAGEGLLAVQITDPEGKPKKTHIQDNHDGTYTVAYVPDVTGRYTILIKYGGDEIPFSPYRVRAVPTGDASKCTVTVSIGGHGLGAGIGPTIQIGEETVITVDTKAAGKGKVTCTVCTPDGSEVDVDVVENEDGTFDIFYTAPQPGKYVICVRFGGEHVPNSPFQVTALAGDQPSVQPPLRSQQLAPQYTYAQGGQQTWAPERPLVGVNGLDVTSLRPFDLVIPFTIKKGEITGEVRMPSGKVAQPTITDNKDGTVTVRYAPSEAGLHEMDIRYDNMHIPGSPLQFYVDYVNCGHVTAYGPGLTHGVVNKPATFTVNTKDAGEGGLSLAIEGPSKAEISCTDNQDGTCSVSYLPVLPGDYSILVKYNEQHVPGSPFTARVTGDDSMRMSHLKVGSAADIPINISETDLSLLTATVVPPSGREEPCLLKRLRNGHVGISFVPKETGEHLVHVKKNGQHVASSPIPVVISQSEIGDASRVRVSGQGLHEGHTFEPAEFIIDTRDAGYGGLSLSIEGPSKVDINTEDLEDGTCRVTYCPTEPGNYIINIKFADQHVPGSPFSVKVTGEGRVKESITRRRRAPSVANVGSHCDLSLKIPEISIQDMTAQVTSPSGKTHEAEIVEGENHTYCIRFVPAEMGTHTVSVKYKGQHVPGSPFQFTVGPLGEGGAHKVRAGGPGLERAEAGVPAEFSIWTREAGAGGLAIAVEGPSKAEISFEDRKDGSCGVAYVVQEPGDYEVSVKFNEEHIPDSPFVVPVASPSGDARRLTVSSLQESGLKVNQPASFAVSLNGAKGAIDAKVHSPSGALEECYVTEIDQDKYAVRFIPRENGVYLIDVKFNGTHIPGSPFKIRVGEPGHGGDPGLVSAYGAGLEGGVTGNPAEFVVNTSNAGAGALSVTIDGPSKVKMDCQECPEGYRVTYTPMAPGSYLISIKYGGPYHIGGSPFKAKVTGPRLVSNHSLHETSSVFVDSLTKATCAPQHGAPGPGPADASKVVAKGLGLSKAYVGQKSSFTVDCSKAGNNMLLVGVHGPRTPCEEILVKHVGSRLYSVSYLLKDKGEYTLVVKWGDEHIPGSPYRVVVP
UniProt Q9UHB6: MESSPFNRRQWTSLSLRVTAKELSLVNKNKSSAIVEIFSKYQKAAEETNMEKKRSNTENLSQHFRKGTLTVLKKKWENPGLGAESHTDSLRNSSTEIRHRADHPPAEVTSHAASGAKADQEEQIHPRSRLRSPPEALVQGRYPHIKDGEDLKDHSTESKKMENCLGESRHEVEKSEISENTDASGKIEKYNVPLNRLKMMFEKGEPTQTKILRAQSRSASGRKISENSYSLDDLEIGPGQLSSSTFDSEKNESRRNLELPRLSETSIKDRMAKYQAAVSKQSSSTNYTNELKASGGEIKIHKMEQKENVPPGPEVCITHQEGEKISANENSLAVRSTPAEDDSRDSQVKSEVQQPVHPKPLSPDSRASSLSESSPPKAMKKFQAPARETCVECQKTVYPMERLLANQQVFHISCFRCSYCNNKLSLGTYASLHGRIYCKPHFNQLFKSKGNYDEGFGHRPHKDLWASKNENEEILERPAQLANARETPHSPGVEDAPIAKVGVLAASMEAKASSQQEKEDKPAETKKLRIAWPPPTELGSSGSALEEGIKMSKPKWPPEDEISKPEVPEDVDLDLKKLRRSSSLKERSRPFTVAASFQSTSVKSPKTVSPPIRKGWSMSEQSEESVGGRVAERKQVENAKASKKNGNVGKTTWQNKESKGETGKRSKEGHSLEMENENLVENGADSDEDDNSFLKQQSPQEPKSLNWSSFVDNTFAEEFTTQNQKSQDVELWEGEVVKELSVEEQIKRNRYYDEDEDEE

T1: FLAG-TurboID-LUZP1 (human) (UniProt Q86V48)
T1 sequence: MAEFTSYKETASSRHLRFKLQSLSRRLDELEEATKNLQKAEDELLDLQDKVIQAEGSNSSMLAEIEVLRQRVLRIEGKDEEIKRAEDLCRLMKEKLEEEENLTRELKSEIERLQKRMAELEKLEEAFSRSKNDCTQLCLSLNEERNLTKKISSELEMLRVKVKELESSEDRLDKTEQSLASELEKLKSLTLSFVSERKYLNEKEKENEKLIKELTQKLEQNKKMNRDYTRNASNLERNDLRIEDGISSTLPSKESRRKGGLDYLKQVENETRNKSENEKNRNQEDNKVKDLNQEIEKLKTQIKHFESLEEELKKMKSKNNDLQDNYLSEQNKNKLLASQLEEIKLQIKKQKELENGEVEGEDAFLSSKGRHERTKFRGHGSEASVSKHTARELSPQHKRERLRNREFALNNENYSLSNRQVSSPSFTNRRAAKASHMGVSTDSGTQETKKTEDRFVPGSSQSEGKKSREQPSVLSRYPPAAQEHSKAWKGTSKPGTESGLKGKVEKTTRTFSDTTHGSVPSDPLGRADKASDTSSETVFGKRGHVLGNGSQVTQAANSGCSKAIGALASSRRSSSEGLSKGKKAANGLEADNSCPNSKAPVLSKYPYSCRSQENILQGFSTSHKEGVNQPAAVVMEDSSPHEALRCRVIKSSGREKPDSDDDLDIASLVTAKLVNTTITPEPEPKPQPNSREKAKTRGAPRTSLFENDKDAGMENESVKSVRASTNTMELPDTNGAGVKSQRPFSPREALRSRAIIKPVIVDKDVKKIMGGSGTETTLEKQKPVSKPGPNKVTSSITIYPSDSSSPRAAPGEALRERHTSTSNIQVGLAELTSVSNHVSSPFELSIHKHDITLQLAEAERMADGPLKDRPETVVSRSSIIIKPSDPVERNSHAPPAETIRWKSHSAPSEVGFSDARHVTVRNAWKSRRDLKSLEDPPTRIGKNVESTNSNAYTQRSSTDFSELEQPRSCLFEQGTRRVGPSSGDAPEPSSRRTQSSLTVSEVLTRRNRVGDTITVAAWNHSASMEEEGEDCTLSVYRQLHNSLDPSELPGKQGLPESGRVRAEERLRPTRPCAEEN

B1: palladin (endogenous) (protein, UniProt Q8WX93 1-1383)
chain: MSGTSSHESFYDSLSDMQEESKNTDFFPGLSAFLSQEEINKSLDLARRAIADSETEDFDSEKEISQIFSTSPASLCEHPSHKETKLGEHASRRPQDNRSTPVQPLAEKQTKSISSPVSKRKPAMSPLLTRPSYIRSLRKAEKRGAKTPSTNVKPKTPHQRKGGPQSQLCDKAANLIEELTSIFKAAKPRNRSPNGESSSPDSGYLSPKNQPSALLSASASQSPMEDQGEMEREVKSPGARHCYQDNQDLAVPHNRKSHPQPHSALHFPAAPRFIQKLRSQEVAEGSRVYLECRVTGNPTPRVRWFCEGKELHNTPDIQIHCEGGDLHTLIIAEAFEDDTGRYTCLATNPSGSDTTSAEVFIEGASSTDSDSESLAFKSRAGAMPQAQKKTTSVSLTIGSSSPKTGVTTAVIQPLSVPVQQVHSPTSYLCRPDGTTTAYFPPVFTKELQNTAVAEGQVVVLECRVRGAPPLQVQWFRQGSEIQDSPDFRILQKKPRSTAEPEEICTLVIAETFPEDAGIFTCSARNDYGSATSTAQLVVTSANTENCSYESMGESNNDHFQHFPPPPPILETSSLELASKKPSEIQQVNNPELGLSRAALQMQFNAAERETNGVHPSRGVNGLINGKANSNKSLPTPAVLLSPTKEPPPLLAKPKLDPLKLQQLQNQIRLEQEAGARQPPPAPRSAPPSPPFPPPPAFPELAACTPPASPEPMSALASRSAPAMQSSGSFNYARPKQFIAAQNLGPASGHGTPASSPSSSSLPSPMSPTPRQFGRAPVPPFAQPFGAEPEAPWGSSSPSPPPPPPPVFSPTAAFPVPDVFPLPPPPPPLPSPGQASHCSSPATRFGHSQTPAAFLSALLPSQPPPAAVNALGLPKGVTPAGFPKKASRTARIASDEEIQGTKDAVIQDLERKLRFKEDLLNNGQPRLTYEERMARRLLGADSATVFNIQEPEEETANQEYKVSSCEQRLISEIEYRLERSPVDESGDEVQYGDVPVENGMAPFFEMKLKHYKIFEGMPVTFTCRVAGNPKPKIYWFKDGKQISPKSDHYTIQRDLDGTCSLHTTASTLDDDGNYTIMAANPQGRISCTGRLMVQAVNQRGRSPRSPSGHPHVRRPRSRSRDSGDENEPIQERFFRPHFLQAPGDLTVQEGKLCRMDCKVSGLPTPDLSWQLDGKPVRPDSAHKMLVRENGVHSLIIEPVTSRDAGIYTCIATNRAGQNSFSLELVVAAKEAHKPPVFIEKLQNTGVADGYPVRLECRVLGVPPPQIFWKKENESLTHSTDRVSMHQDNHGYICLLIQGATKEDAGWYTVSAKNEAGIVSCTARLDVYTQWHQQSQSTKPKKVRPSASRYAALSDQGLDIKAAFQPEANPSHLTLNTALVESEDL

Each molecule was assayed against T1, FLAG-TurboID-LUZP1 (human) (assay: proximity labelling; TurboID: RPE1 cells stably expressing TbID-LUZP1 or TbID alone at sub-endogenous levels, NeutrAvidin pulldown, LC-MS/MS, three replicates).

binding, binds:
PCM1 (endogenous) (from UniProt Q15154 1-2024)
filamin A (endogenous) (from UniProt P21333 1-2647)
LIMA1/Eplin (endogenous) (from UniProt Q9UHB6 1-759)
alpha-actinin (endogenous) (human (endogenous in RPE1))
B1

Results are given in words; binding and its absence hold for the method and conditions named. Binding seen in cells or lysates may run through a third protein. These calls come from enrichment with a bait or labelling near it, and not all partners need be listed. Tags and fused reporters may be left off the sequences shown.
